Assay results taken from PubChem BioAssay AID1487 (National Center for Advancing Translational Sciences (NCATS), 2009).
Some of the results follow. The main result of the screen is listed elsewhere. These columns were measured beside it and carry no call. The list favours compounds with an active or inconclusive main result. Words in brackets tell the shape of the fitted curve; partial curves, single points and poor fits give uncertain potencies.

Assay: qHTS Assay for Modulators of Lamin A Splicing
Conditions: HeLa LMNA splicing GFP/RFP minigene ratio, 48 h
In short: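 S3 HeLa stable clones carrying a lamin A-EGFP splicing minigene plus DsRed2 were seeded at 600 cells/well in Opti-MEM with 2% FBS, pin-dosed and incubated 48 h at 37°C. Acumen cytometry (488 nm) gave the GFP/RFP total-intensity ratio.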

[1] = measured here: RFP viability control channel
[2] = measured here: GFP splicing reporter channel

Row | Compound | AC50 [1] | AC50 [2]
1 | O=C(Nc1ccc(OC(F)F)c(Cl)c1)Nc1ccc2c(c1)OCO2 | 14.1 µM [rising, single point] | –
2 | Cc1ccc(S(=O)(=O)C(CNC(=O)c2ccccc2F)c2cccs2)cc1 (stereo unspecified) | – | 0.794 µM [rising, full curve]
3 | Cc1sc(NC(=O)c2ccccc2)c(C(c2ccccn2)N2CCN(CCO)CC2)c1C (stereo unspecified) | 17.8 µM [rising, single point] | –
4 | Cc1ccc(C(=O)N2CCCC(C(=O)c3ccc(Oc4ccccc4)cc3)C2)cn1 (stereo unspecified) | 35.5 µM [falling, single point] | 3.98 µM [falling, full curve, poor fit]
5 | CC(C)Oc1ccc(Cc2n[nH]c(=S)n2Cc2ccccc2)cc1Cl | 10 µM [rising, partial curve, poor fit] | –
6 | O=C(c1ccncc1)N(c1ccc2oc3c(c2c1)CCCC3)S(=O)(=O)c1cccc([N+](=O)[O-])c1 | 12.6 µM [rising, partial curve] | –
7 | Cn1cnc([N+](=O)[O-])c1Oc1ccccc1 | 14.1 µM [rising, single point] | –
8 | COc1ccc2[nH]cc(C(=O)CCl)c2c1 | 5.62 µM [falling, partial curve] | –
9 | CC(=O)c1sc(NC(=O)c2cc(-c3ccccc3)nn2-c2ccccc2)nc1C | 7.08 µM [rising, partial curve] | 7.08 µM [rising, partial curve]
10 | Cc1ccc(N(CCCCN2C(=O)c3ccccc3C2=O)C(=O)c2cccs2)cc1 | 11.2 µM [falling, partial curve, poor fit] | –
11 | Cn1c(=O)c2c(nc(NCc3ccc4c(c3)OCO4)n2Cc2ccccc2)n(C)c1=O | 35.5 µM [rising, single point] | –
12 | O=C(NC(C(=O)N/N=C/c1cccc2ccccc12)c1n[nH]c(=O)c2ccccc12)c1ccccc1 (stereo unspecified) | 3.55 µM [rising, single point] | 3.55 µM [rising, partial curve]
13 | COc1cc(/C=N/NC(=O)CN(Cc2ccccc2)S(=O)(=O)c2ccc3c(c2)OCCO3)ccc1O | 7.08 µM [rising, partial curve] | –
14 | O=C(N/N=C/c1ccco1)c1ccccc1OCc1ccc(Br)cc1 | 17.8 µM [rising, single point] | 11.2 µM [rising, partial curve, poor fit]
15 | O=C(Nc1nccs1)C1(c2ccc(Cl)cc2)CC1 | 1.26 µM [falling, full curve, poor fit] | –
16 | COc1cccc(C(=O)/C=C2\Sc3ccccc3N2C)c1 | – | 35.5 µM [falling, partial curve, poor fit]
17 | CC(=O)Oc1c(/C=C(\C#N)C(N)=O)[nH]c2ccccc12 | – | 31.6 µM [rising, single point]
18 | CCC(O)CC(C(=O)NNc1ccccc1)C(=O)NNc1ccccc1 (stereo unspecified) | 4.47 µM [rising, full curve, poor fit] | –
19 | Cc1cc(C)n(C(C)CC(=O)NCc2ccc(N(C)C)cc2)n1 (stereo unspecified) | 0.282 µM [falling, partial curve, poor fit] | 0.112 µM [falling, full curve, poor fit]

Row | Compound | AC50 [1] | AC50 [2]
20 | COc1ccc(NS(=O)(=O)c2ccc(NC(C)=O)cc2)cc1OC | 10 µM [rising, partial curve] | 6.31 µM [rising, full curve, poor fit]
21 | COc1cc(Cl)c(C)cc1NC(=O)Cn1ncc2c([nH]c3ccccc32)c1=O | 0.0112 µM [falling, full curve, poor fit] | –
22 | O=C(CSc1nc2cc(Cl)ccc2s1)Nc1cccc(S(=O)(=O)N2CCOCC2)c1 | 17.8 µM [rising, single point] | –
23 | O=C(/C=C/c1cn(CC(O)CN2CCCCC2)c2ccccc12)c1cccs1 (stereo unspecified) | 14.1 µM [rising, partial curve] | –
24 | COc1ccc(C(=O)c2oc3ccc(OC)cc3c2N)cc1 | 7.94 µM [rising, partial curve, poor fit] | –
25 | Cn1c(=O)c2c(nc(N3CCCCC3)n2CCSc2nc3ccccc3s2)n(C)c1=O | 35.5 µM [rising, single point] | 35.5 µM [rising, single point]
26 | COc1ccc(Oc2ncc3nc(-c4cc(F)cc(F)c4)c(=O)n(C[C@H]4CCCO4)c3n2)cc1 | – | 12.6 µM [falling, partial curve, poor fit]
27 | Cc1cc(Nc2cccc(C(F)(F)F)c2)nc2ccc(NC(=O)c3ccc(=O)[nH]c3)cc12 | 11.2 µM [falling, partial curve] | 11.2 µM [falling, partial curve]
28 | N#C/C(=C/c1ccc([N+](=O)[O-])cc1)C(=O)Nc1ccccc1O | 7.08 µM [rising, partial curve] | –
29 | Cn1c(CN2CCN(C(=O)c3ccccc3)CC2)nc2cc([N+](=O)[O-])ccc21 | 14.1 µM [rising, partial curve] | 10 µM [rising, single point]
30 | O=c1cc(-c2ccccc2)[nH]c2nc3ccccc3n12 | 1 µM [rising, full curve, poor fit] | –
31 | Cc1ccc(S(=O)(=O)NCCC(=O)Nc2ccc(C)cc2C(=O)c2ccccc2)cc1 | 3.55 µM [rising, partial curve] | –
32 | COc1ccc(C(=O)NC(=S)NNC(=O)c2c(-c3ccccc3)noc2C)cc1 | 12.6 µM [rising, partial curve] | –
33 | O=C1C(Cl)=C(N2CCOCC2)C(=O)N1c1ccccc1 | – | 0.501 µM [falling, single point]
34 | Nc1cccc(Nc2ccccc2)c1 | 5.62 µM [falling, partial curve, poor fit] | 2.82 µM [falling, partial curve, poor fit]
35 | CC(C)CC(NC(=O)C1CCC(C)CC1)C(=O)Nc1ccccn1 (stereo unspecified) | 0.0631 µM [rising, full curve, poor fit] | –
36 | O=C(c1ccco1)N1CCN(c2ncnc3c2[nH]c2ccccc23)CC1 | 12.6 µM [rising, partial curve] | 12.6 µM [rising, partial curve]
37 | O=C(NCc1ccc(F)cc1)c1cc(S(=O)(=O)N2CCOCC2)ccc1F | 0.0316 µM [falling, full curve, poor fit] | –
38 | CC1CN(C(=O)N2CCC(C(=O)NC3CCCCCC3)CC2)c2ccccc2O1 (stereo unspecified) | 0.01 µM [falling, full curve, poor fit] | –

Looked up by compound from the list above:
Row | Compound | AC50 [1] | AC50 [2]
26 | COc1ccc(Oc2ncc3nc(-c4cc(F)cc(F)c4)c(=O)n(C[C@H]4CCCO4)c3n2)cc1 | – | 12.6 µM [falling, partial curve, poor fit]
20 | COc1ccc(NS(=O)(=O)c2ccc(NC(C)=O)cc2)cc1OC | 10 µM [rising, partial curve] | 6.31 µM [rising, full curve, poor fit]
27 | Cc1cc(Nc2cccc(C(F)(F)F)c2)nc2ccc(NC(=O)c3ccc(=O)[nH]c3)cc12 | 11.2 µM [falling, partial curve] | 11.2 µM [falling, partial curve]
28 | N#C/C(=C/c1ccc([N+](=O)[O-])cc1)C(=O)Nc1ccccc1O | 7.08 µM [rising, partial curve] | –
31 | Cc1ccc(S(=O)(=O)NCCC(=O)Nc2ccc(C)cc2C(=O)c2ccccc2)cc1 | 3.55 µM [rising, partial curve] | –

The listing continues:

Row | Compound | AC50 [1] | AC50 [2]
39 | CNC(=O)C(=O)N/N=C/c1ccc(Br)cc1 | 1.26 µM [rising, single point] | –
40 | CCOC(=O)CSc1nnc(CNC(=O)c2ccc(OC)c(OC)c2)n1C | 3.55 µM [rising, partial curve, poor fit] | –
41 | O=C(Cn1cnc2ccccc21)Nc1ccc(SC(F)F)cc1 | 20 µM [rising, single point] | –
42 | CCOC(=O)C1(CCc2ccccc2)CCN(C(=O)CCc2cnccn2)CC1 | – | 2.24 µM [falling, partial curve, poor fit]
43 | O=[N+]([O-])c1ccc(C=Nc2cccc3ccccc23)s1 | 20 µM [falling, partial curve, poor fit] | 35.5 µM [falling, single point]
44 | Cc1ccc(N(Cc2cccs2)C(=O)COc2ccccc2[N+](=O)[O-])cc1 | 1.58 µM [rising, full curve, poor fit] | –
45 | COc1ccc(C2C=C(c3ccc(C)c(C)c3)Nc3ncnn32)c(OC)c1OC (stereo unspecified) | 3.98 µM [rising, single point] | –
46 | O=C(O)c1ccccc1-c1c2ccc(=O)cc-2oc2cc(O)ccc12 | – | 0.0251 µM [falling, full curve]
47 | CCOC(=O)c1c(NC(=O)C(C)Sc2c[nH]c3ccccc23)sc2c1CCC2 (stereo unspecified) | 25.1 µM [rising, single point] | 11.2 µM [rising, single point]
48 | Oc1ccccc1N=Cc1ccc[nH]1 | 12.6 µM [rising, partial curve] | –
49 | Cc1ccc2c(CC(=O)OCc3nc(N)nc(Nc4ccccc4C)n3)coc2c1 | 3.98 µM [rising, partial curve, poor fit] | 1 µM [rising, partial curve, poor fit]
50 | COc1cc(/C=C(/C#N)c2ccccc2)ccc1Oc1ccc([N+](=O)[O-])cn1 | 10 µM [rising, partial curve] | –
51 | O=C(c1ccc(-c2cc3ccccc3oc2=O)cc1)N1CCN(c2ccc(Cl)cc2[N+](=O)[O-])CC1 | 7.94 µM [rising, partial curve, poor fit] | –
52 | Cc1cc2cc(CN(Cc3ccco3)C(=S)NCC3CCCO3)c(=O)[nH]c2cc1C (stereo unspecified) | 15.8 µM [rising, partial curve, poor fit] | –
53 | CC(C)c1ccc(NC(=O)c2ccc(Br)o2)cc1 | 35.5 µM [rising, single point] | –
54 | CC(C)[C@H](NC(=O)OC(C)(C)C)c1nnc(S(=O)(=O)Cc2c(F)cccc2Cl)o1 | 14.1 µM [rising, single point] | 25.1 µM [falling, single point]
55 | Cc1sc(N)nc1C12CC3CC(CC(C3)C1)C2 | – | 1.78 µM [rising, partial curve, poor fit]
56 | Nc1c(C(O)(C(F)(F)F)C(F)(F)F)cc(C(O)(C(F)(F)F)C(F)(F)F)c2ccccc12 | 12.6 µM [rising, partial curve] | –
